Like-named read-outs stand apart in the source and are kept apart here. No constants are given. Whether binding was seen depends on the method and setting. Some results given as binding are weak or reduced against the parent protein; the word gives no strength. One block for each molecule: values may come before it.
Legend:
[1] = molecular target: T1, Mrs6 (Rab escort protein) (S. cerevisiae) (UniProt P32864); test: two-hybrid; Gal4 system, pGBDU-C1 bait and pGAD-C1 prey in strain PJ694A; growth on S-D-URA-LEU media lacking histidine and containing ATA
T1 sequence: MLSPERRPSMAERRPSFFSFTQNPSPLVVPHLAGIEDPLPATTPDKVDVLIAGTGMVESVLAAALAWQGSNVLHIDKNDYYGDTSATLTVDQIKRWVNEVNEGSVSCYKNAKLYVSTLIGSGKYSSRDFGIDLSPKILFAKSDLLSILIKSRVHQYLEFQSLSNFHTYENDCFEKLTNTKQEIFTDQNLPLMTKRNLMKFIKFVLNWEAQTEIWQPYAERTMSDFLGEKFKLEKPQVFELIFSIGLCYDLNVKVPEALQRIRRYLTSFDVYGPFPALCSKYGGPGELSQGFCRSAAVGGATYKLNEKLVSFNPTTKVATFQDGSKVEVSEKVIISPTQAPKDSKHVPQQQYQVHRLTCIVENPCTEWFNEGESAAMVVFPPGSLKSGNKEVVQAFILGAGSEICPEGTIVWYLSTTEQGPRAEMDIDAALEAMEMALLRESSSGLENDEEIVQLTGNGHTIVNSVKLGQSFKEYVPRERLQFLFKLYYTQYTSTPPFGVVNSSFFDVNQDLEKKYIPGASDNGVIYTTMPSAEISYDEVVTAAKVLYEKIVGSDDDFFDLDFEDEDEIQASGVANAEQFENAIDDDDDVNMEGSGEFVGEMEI

By UniProt entry, the sequences of proteins in these tests, tags left out.
UniProt P19073: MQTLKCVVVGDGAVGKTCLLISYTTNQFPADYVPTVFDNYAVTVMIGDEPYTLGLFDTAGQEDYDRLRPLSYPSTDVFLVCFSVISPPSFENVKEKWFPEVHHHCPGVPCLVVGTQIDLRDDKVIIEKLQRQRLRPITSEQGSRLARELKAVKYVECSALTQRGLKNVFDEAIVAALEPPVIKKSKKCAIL

[2] = molecular target: T1, Mrs6 (Rab escort protein) (S. cerevisiae); test: as above; remark: listed apart in the source

- binding [1]: no binding
Molecule: Cdc42 (Rho-type GTPase) (from UniProt P19073 1-191)

- binding [2]: binds
B1: Ste20 (PAK kinase, MAPKKKK) (protein, UniProt Q03497 1-939)
chain: MSNDPSAVSELPDKDSLDNGISNDNERAMGGNGDGGDGLRLPRTTGTLNVNALQKGTNAAHEAGGYKSMDPAKNAETTNDDDNNVVSLDDPIQFTRVSSSSVISGMSSSMSPHSNIDETKSLEAVTPNINTSNITPDHSADNTFSTINASESDHQFNDTLLSKLSLTDSTETIENNATVKHQQPVASSTVNSNKSSTDIRRATPVSTPVISKPSMTTTPRQINSASHSLSNPKHKQHKPKVKPSKPEAKSKPVSVKKSFPSKNPLKNSSPPKKQTEKSYYSSSSKKRKSGSNSGTLRMKDVFTSFVQNIKRNSQDDKRASSSSNNSSSSSITTALRISTPYNAKHIHHVGVDSKTGEYTGLPEEWEKLLTSSGISKREQQQNMQAVMDIVKFYQDVTETNGEDKMFKTFNTTTGLPGSPQVSTPPANSFNKFPPSTSDSHNYGSRTGTPMSNHVMSPTLNTDSSSANGKFIPSRPAPKPPSSASASAPIIKSPVMNSAANVSPLKQTHAPTTPNRTSPNRSSISRNATLKKEEQPLPPIPPTKSKTSPIISTAHTPQQVAQSPKAPAQETVTTPTSKPAQARSLSKELNEKKREERERRKKQLYAKLNEICSDGDPSTKYANLVKIGQGASGGVYTAYEIGTNVSVAIKQMNLEKQPKKELIINEILVMKGSKHPNIVNFIDSYVLKGDLWVIMEYMEGGSLTDVVTHCILTEGQIGAVCRETLSGLEFLHSKGVLHRDIKSDNILLSMEGDIKLTDFGFCAQINELNLKRTTMVGTPYWMAPEVVSRKEYGPKVDIWSLGIMIIEMIEGEPPYLNETPLRALYLIATNGTPKLKEPENLSSSLKKFLDWCLCVEPEDRASATELLHDEYITEIAEANSSLAPLVKLARLKKVAENMDADEDNDDDNDNEHINKTNNCDDNNDSKETVNLDVTEDDKQK

- binding [2]: binds weakly
B2: Ssk1 protein (protein, UniProt Q07084 1-712)
chain: MLNSALLWKVWLRIDNSTDEVNQPIAVQFDEIDTVDDLKSRFFQKLSSTRWREINDNASIAIGLYAPKFDNQADNTSSNNTNDNSCRSKSNGAGSGANLSVNSNTKSSVSPTAGSFGLSKDLAKDRNVLQHPKPTQKRGALYDAFAAVPTVAATTNVDFPPNEAPMLSPQRPYSTSPKQFPATTKSPLLRFASVSPYPKFHSDNQIMASAGLTYVSPHNKNKYTRPLIRKGLNFTTESVNDCTYKIIFEPDELAINIYKELFGTMGSQPASQPLLIFSNVNLRQDVPPLDILNVVDYVPTNEEISQQKTQPTDHGAVGVFHLDDHISPGEQGLKQTIGDKADLKGKDGNSSPQEFKLITDEEQLRRASQELKDEEKDAESPWQAILLLPKGYKGGVDFRNKPVAHTDSSFNNEDTITHSELEVNTGSPSQESGSLNEAGIGITQPMSEVQRRKEDVTPASPILTSSQTPHYSNSLYNAPFAVSSPPDPLPNLFTTTSEKVFPKINVLIVEDNVINQAILGSFLRKHKISYKLAKNGQEAVNIWKEGGLHLIFMDLQLPVLSGIEAAKQIRDFEKQNGIGIQKSLNNSHSNLEKGTSKRFSQAPVIIVALTASNSQMDKRKALLSGCNDYLTKPVNLHWLSKKITEWGCMQALIDFDSWKQGESRMTDSVLVKSPQKPIAPSNPHSFKQATSMTPTHSPVRKNSNLSPTQIEL

- binding [2]: binds
B3: Ste7 (MAPKK) (protein, UniProt P06784 1-515)
chain: MFQRKTLQRRNLKGLNLNLHPDVGNNGQLQEKTETHQGQSRIEGHVMSNINAIQNNSNLFLRRGIKKKLTLDAFGDDQAISKPNTVVIQQPQNEPVLVLSSLSQSPCVSSSSSLSTPCIIDAYSNNFGLSPSSTNSTPSTIQGLSNIATPVENEHSISLPPLEESLSPAAADLKDTLSGTSNGNYIQLQDLVQLGKIGAGNSGTVVKALHVPDSKIVAKKTIPVEQNNSTIINQLVRELSIVKNVKPHENIITFYGAYYNQHINNEIIILMEYSDCGSLDKILSVYKRFVQRGTVSSKKTWFNELTISKIAYGVLNGLDHLYRQYKIIHRDIKPSNVLINSKGQIKLCDFGVSKKLINSIADTFVGTSTYMSPERIQGNVYSIKGDVWSLGLMIIELVTGEFPLGGHNDTPDGILDLLQRIVNEPSPRLPKDRIYSKEMTDFVNRCCIKNERERSSIHELLHHDLIMKYVSPSKDDKFRHWCRKIKSKIKEDKRIKREALDRAKLEKKQSERSTH

Source: paper PMC7746766
